For one substance, binding results are on record in article PMC8566502.

Amino acid sequences for entries named in this document (tags omitted).
UniProt Q9JJN2: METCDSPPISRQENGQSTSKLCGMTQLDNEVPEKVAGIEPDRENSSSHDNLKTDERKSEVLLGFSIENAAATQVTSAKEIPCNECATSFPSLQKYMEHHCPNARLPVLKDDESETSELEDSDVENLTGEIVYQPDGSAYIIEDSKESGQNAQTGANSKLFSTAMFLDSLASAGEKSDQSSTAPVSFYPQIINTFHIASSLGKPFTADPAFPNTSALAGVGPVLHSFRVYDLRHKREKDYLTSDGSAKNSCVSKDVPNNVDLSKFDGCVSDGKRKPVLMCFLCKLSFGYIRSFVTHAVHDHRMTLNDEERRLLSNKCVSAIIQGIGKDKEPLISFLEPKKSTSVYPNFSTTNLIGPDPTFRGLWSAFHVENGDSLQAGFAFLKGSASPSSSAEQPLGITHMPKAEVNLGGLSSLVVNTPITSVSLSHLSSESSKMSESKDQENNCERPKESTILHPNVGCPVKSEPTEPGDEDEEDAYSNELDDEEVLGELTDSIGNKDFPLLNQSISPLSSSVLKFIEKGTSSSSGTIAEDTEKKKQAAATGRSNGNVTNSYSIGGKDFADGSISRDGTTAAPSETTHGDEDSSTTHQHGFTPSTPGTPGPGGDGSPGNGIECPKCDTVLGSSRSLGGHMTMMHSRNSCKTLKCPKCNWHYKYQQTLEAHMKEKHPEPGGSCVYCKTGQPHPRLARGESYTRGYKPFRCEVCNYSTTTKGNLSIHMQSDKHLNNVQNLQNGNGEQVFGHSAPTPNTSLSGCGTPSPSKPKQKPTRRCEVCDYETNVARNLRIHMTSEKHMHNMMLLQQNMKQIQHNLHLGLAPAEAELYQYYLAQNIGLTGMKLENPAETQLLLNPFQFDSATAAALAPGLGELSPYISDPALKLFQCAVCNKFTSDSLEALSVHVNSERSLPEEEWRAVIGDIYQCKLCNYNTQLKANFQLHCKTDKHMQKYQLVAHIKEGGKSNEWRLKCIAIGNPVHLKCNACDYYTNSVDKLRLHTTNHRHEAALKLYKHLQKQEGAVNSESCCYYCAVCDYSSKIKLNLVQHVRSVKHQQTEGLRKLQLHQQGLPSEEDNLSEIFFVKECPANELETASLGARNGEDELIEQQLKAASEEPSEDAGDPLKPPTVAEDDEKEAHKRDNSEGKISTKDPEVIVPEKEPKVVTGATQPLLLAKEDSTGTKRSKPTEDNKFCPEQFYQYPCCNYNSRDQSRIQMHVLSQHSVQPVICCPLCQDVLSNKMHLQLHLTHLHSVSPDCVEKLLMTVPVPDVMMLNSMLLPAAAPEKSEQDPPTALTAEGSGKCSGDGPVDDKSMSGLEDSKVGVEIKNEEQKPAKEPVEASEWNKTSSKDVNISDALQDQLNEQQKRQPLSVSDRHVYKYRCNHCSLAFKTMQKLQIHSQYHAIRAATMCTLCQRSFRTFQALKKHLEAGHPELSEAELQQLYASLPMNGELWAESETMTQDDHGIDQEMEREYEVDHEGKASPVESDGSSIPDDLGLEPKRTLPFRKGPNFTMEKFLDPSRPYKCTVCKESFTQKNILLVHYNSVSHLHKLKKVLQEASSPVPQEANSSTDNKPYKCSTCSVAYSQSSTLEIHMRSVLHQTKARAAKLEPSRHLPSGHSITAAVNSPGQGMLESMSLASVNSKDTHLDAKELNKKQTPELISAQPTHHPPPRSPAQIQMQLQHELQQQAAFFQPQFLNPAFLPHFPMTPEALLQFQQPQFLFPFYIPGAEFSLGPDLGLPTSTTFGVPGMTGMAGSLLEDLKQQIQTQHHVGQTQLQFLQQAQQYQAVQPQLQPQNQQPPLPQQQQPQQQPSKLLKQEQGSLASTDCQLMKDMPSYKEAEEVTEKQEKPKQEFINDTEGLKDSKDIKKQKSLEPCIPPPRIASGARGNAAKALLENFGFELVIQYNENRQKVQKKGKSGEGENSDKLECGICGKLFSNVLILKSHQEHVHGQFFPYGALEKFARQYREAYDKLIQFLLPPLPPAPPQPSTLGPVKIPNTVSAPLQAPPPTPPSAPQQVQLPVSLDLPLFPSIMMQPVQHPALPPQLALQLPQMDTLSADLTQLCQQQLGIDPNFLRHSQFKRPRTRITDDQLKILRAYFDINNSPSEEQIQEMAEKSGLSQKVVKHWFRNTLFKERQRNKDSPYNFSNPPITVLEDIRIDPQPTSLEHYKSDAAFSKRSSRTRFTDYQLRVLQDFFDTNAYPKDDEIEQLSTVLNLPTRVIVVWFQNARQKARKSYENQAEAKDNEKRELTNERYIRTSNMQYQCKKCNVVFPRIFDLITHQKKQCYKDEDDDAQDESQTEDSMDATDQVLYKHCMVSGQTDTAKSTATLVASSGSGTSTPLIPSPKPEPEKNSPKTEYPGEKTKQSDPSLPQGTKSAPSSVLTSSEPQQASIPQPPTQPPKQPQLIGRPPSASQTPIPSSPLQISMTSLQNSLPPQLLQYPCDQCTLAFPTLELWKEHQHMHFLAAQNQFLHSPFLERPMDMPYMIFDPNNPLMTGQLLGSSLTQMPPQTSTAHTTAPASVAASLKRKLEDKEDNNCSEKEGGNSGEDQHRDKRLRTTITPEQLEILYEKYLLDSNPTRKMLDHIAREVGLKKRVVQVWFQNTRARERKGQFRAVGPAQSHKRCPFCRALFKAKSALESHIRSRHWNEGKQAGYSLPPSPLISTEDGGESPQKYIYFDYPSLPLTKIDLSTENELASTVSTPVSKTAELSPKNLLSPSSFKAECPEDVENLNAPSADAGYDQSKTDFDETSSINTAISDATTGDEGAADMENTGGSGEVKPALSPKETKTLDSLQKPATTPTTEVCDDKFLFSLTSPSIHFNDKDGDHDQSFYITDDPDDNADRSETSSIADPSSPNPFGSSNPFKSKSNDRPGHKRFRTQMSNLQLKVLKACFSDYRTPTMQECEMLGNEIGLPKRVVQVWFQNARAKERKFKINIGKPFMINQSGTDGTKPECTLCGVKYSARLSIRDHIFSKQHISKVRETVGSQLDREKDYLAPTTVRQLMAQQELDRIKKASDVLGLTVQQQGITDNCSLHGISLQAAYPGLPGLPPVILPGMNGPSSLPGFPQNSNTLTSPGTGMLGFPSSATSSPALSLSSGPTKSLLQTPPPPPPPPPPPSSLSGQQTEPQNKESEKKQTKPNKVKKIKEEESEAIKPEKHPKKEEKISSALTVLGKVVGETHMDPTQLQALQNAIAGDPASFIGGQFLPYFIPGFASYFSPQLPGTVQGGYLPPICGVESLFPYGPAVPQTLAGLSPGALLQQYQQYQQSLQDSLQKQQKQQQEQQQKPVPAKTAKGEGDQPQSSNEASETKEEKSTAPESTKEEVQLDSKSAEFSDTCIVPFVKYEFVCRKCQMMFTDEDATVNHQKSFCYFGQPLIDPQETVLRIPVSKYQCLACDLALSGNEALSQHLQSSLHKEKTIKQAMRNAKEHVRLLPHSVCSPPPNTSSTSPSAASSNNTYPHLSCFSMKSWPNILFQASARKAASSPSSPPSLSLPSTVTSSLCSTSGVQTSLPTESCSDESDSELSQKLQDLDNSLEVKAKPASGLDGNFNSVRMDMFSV
UniProt Q8VI67: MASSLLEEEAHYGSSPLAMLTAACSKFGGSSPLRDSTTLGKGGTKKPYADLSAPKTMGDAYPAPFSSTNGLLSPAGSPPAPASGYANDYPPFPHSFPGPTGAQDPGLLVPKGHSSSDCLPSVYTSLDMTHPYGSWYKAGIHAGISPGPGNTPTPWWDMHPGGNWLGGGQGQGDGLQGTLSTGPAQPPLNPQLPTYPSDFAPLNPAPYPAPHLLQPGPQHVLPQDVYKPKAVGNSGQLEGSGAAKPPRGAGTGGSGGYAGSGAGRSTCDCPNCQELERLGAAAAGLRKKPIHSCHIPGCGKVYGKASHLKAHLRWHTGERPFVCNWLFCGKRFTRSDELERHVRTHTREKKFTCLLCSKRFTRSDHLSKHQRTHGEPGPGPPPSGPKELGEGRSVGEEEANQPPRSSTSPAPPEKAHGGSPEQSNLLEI

The assay concerns the target Flag-tagged zinc finger homeobox 4 (Zfhx4) (mouse) (UniProt Q9JJN2). Briefly: co-IP; lysates of transfected cells (293FT for Flag-Zfhx4 with 6xMyc-Osterix); lysis buffer 20 mM HEPES pH 7.4, 150 mM NaCl, 1% Triton X-100; anti-Flag antibody 16 h at 4 °C, Dynabeads Protein G; five washes with ice-cold PBS; western blot with anti-Myc. (In general: In western blotting, separated proteins are transferred to a membrane and probed.)

No constants are given. Whether binding was seen depends on the method and setting. In cells and extracts the contact can be indirect. Some binding calls cover weakened binding; strength is not graded here.

As to “6xMyc-Osterix (from UniProt Q8VI67 1-428)”, the binding entry is on record as “binds”.
